Experimental data published in publication PMC3581772.

Target: T1, native α2-macroglobulin (human) (UniProt P01023)
T1 sequence: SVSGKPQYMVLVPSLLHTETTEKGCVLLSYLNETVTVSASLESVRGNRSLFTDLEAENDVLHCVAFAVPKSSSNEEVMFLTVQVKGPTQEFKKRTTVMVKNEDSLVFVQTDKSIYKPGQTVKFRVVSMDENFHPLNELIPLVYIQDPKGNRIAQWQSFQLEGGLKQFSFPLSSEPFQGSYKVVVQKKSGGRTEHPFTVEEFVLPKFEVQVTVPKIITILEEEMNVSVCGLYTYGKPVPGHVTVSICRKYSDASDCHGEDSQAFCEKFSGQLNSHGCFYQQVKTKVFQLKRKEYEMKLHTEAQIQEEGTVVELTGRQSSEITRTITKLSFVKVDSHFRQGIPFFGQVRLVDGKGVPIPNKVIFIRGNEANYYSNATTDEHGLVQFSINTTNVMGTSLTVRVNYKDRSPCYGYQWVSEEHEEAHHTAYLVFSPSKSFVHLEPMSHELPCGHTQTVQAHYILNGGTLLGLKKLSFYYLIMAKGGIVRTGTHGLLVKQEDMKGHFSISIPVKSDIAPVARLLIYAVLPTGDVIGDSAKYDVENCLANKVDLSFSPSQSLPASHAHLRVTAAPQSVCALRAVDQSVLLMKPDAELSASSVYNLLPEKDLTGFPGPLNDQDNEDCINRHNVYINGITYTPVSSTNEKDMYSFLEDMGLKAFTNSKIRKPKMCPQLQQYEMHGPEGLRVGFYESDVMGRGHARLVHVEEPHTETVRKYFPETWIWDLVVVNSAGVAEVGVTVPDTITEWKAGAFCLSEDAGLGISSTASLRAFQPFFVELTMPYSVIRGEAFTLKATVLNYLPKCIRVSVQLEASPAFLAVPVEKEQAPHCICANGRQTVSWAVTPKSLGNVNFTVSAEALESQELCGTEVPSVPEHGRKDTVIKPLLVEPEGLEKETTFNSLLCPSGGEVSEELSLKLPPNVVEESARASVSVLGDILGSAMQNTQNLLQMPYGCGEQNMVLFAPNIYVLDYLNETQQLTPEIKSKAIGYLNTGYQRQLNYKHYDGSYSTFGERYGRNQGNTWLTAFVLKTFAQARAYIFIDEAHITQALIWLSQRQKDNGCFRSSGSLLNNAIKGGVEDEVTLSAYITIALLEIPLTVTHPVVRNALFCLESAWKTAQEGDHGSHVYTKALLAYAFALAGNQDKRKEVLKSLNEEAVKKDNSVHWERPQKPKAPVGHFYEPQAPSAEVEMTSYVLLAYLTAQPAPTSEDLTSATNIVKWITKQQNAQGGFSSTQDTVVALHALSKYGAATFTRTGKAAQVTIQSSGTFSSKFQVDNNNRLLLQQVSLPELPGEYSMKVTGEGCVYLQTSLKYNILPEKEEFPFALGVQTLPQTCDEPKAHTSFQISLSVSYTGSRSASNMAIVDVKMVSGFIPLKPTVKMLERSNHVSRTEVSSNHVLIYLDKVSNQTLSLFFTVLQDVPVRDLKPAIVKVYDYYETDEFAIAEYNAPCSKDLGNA
Assay: native gel or EMSA; α2M with a threefold molar excess of bovine trypsin, PBS pH 7.4, 25 °C; activation assessed on 3–8% Tris–acetate native gels; unreacted trypsin removed by SEC; both purified

bovine trypsin (enzyme) was tested, and the binding was “binds”.

No constants are given. Whether binding was seen depends on the method and setting. Binding can be weak; no strength is given.
